Data from patent US20220243360A1 (ROCHE SEQUENCING SOLUTIONS, published 2022).
No constants are given. Whether binding was seen depends on the method and setting. Some entries that bind do so weakly or less than the wild type.

Chains of the proteins cited; added tags and fusions are not shown. Residues count along the entry.
UniProt P0AEG4, residues 20-208: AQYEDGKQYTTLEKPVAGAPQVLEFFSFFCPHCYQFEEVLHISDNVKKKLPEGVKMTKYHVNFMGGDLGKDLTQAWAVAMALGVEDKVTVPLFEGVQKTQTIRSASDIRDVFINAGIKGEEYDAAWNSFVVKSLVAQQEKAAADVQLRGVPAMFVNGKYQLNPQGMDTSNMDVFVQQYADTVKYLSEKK

Target: biotin-labeled DsbA (UniProt P0AEG4)
Assay: summary of microarray and Biacore data

Row | Binder | binding
1 | DFWHGETCKVTQFDQ (C-terminal amide) | binds
2 | DFWHGEQCKVTQFDQ (C-terminal amide) | binds
3 | NDYQYKGQQCLDPKY (C-terminal amide) | binds
4 | HNWAAQCLNPDQAKL (C-terminal amide) | binds
5 | HNWAAQCLKDQAKL (C-terminal amide) | binds
6 | SIIGMCYKKDPS (C-terminal amide) | binds
7 | VIGQCLKN (C-terminal amide) [VIGQCLKN-NH2] | binds
8 | WQYENWAITKWQCVK (C-terminal amide) | binds
9 | VIVGQCLKK (C-terminal amide) | binds
10 | VILGQCLKQ (C-terminal amide) | binds
11 | YVYGMCWKDYTDTDK (C-terminal amide) | binds
12 | YVYGMCWKDYTTDK (C-terminal amide) | binds
